Drawing on PubChem BioAssay AID493014 (National Center for Advancing Translational Sciences (NCATS), 2011), this text covers AC50 for 41 molecules.

This assay can be described thus: qHTS Assay to Find Inhibitors of Chronic Active B-Cell Receptor Signaling. The conditions noted are these: ABC-DLBCL IkBa-CBG/CBR reporter, luminescence ratio (green luciferase fused to IkBa over red control in TMD8 lymphoma cells), 4 h. The gist of the method:
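Compounds up to 46 uM were incubated four hours with TMD8 cells whose green CBG68 luciferase is fused to IkappaBalpha; red CBR luminescence normalised the signal, and concentration-effect curves were fitted to fusion, red and ratio data.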
In general terms: Quantitative high-throughput screening tests each substance at several concentrations.

Where [1] appears, read: measured here: CBR red luminescence, cell number.
The mark [2] stands for this setting: measured here: IkBa-CBG green luminescence.

Some of the results follow. The main result of the screen is listed elsewhere. These columns were measured beside it and carry no call. Most of these compounds were active or inconclusive in the main read-out, so they are no random draw. The note in brackets gives the kind of curve behind each potency; many fits are weak.

Usually AC50 stands for the concentration at which the activity in the assay is half-maximal. Consider `CC(=O)N1CCN(c2ccc(NC(=O)c3ccccc3)cc2)CC1`, for which the AC50 under setting [1] was 11.2 µM [falling, partial curve, poor fit]. The same measure, in the same setting: with `O=C(Nc1nsc(-c2ccccc2)n1)c1cccs1` the figure was 0.92 µM [falling, full curve]; with `O=C(c1cccs1)[C@@H]1[C@@H]2C(=O)N(Cc3ccc4c(c3)OCO4)C(=O)[C@@H]2C2c3ccccc3C=CN21` (some centres not stated), 22.4 µM [falling, single point]. Same read-out and setting: with `CCn1nnc2sc3c(c2c1=O)CCC(C)C3` (configuration not stated) the figure was 2 µM [rising, full curve, poor fit]; with `CSc1ccc(CNc2ccc(C)cc2)cc1`, 5.01 µM [rising, full curve]; with `Cc1ccc(NC(=O)C2C(=O)N(C)c3ccccc32)cc1` (configuration not stated), 0.0184 µM [rising, full curve, poor fit].

Consider `COc1cc(Cl)cc(C(=O)O)c1OCC(=O)O`, for which the AC50 under setting [1] is 3.98 µM [rising, full curve, poor fit]. Same read-out and setting: under `Cc1nc(Nc2ccc(Cl)cc2)c(C#N)c(=O)[nH]1` stands 15.8 µM [rising, partial curve, poor fit]; under `O=C1SCCc2c1n(Cc1ccccc1)c1ccccc21`, 1.16 µM [rising, partial curve, poor fit]; under `C(=N\Nc1nc(N2CCCC2)nc(N2CCCC2)n1)/c1ccncc1`, 0.1 µM [falling, full curve, poor fit].

Turning to `Cc1ccccc1NC(=O)C(=O)c1cn(C)c2ccccc12`, under setting [1], the AC50 is 6.31 µM [falling, partial curve, poor fit]. The same measure, in the same setting: with `CN1CCN(c2ccccc2NC(=O)c2cc3c(s2)-c2ccccc2OC3)CC1` the figure was 15.8 µM [falling, partial curve, poor fit]; with `N#C/C(=C/N1CCOCC1)c1ccccc1`, 35.5 µM [falling, single point].

As to `COc1ccc(C(=O)CCS(=O)(=O)c2ccc(C)cc2)cc1OC`, under setting [1], the AC50 is 17.8 µM [falling, single point]. Same read-out and setting: under `Cc1ccc(NC(NC(=O)c2cccs2)C(Cl)(Cl)Cl)cc1C` (configuration not stated) stands 35.5 µM [falling, single point]. Turning to `Cc1cc2cc(CNC(=S)Nc3ccc(OC(F)F)cc3)ccc2[nH]1`, the AC50 was 8.2 µM [falling, partial curve, poor fit] under setting [1] and 23.1 µM [falling, single point] under setting [2]. Take `Cc1ccc2cccc(OCc3ccccc3)c2n1`: under setting [1], the half-maximal activity concentration (AC50) was 0.794 µM [rising, full curve, poor fit]. Same read-out and setting: with `CC1(C)CC(=O)C2=C(C1)OC(N)=C(C#N)C2c1ccsc1` (configuration not stated) the figure was 4.61 µM [falling, partial curve, poor fit]; with `Cc1ccc(NC(=S)c2nc3ccccc3s2)cc1`, 3.16 µM [falling, full curve]. Consider `C[C@H](CO)N1C[C@H](C)[C@@H](CN(C)Cc2ccc3c(c2)OCO3)Oc2c(NC(=O)Cc3ccccc3)cccc2C1=O`, for which, under setting [1], the half-maximal activity concentration (AC50) is 16.4 µM [falling, single point].

Take `COC(=O)C(C)Oc1ccc2c(c1)O/C(=C\c1cccc(Br)c1)C2=O` (configuration not stated): the concentration at half-maximal activity (AC50) under setting [1] was 20 µM [rising, partial curve, poor fit]. The same measure, in the same setting: under `O=C(NCCN1CCOCC1)c1c(O)nc2ccccn2c1=O` stands 12.6 µM [rising, partial curve, poor fit]; under `COc1ccc(-c2c(C#Cc3ccsc3)c3cc(-c4cccc5[nH]ccc45)ccc3n2C)cc1`, 29.1 µM [falling, single point]. For the molecule `COc1ccc(NCc2nnc(SCc3ccc(Cl)cc3)n2-c2ccccc2)cc1`, the AC50 under setting [1] is 18.4 µM [falling, single point]. Take `CCN(CC)S(=O)(=O)c1ccc2oc(C(=O)N3CCc4ccccc4C3)c(C)c2c1`: the half-maximal activity concentration (AC50) under setting [1] is 32.6 µM [falling, single point]. The same measure, in the same setting: under `CCCCn1c(C)cc(C)c(S(=O)(=O)c2ccccc2C)c1=O` stands 13 µM [falling, partial curve, poor fit]; under `Cc1nn2c(-c3cccc(NC(=O)c4ccco4)c3)nnc2c2ccccc12`, 13 µM [rising, single point]. Same read-out and setting: under `Cc1cccc(NC(=O)CSc2nc3ccccc3c(=O)n2C)c1` stands 2.51 µM [falling, full curve]. As for `C=CCc1c(C)nc(-c2ccccc2)nc1N/N=C(\C)c1ccccc1`, under setting [2], the AC50 is 3.26 µM [rising, full curve].

As for `O=C(C1=C[C@H](C2CCCCC2)C[C@H](OCc2ccc(CO)cc2)O1)N1CCN(Cc2ccc3c(c2)OCO3)CC1`, the AC50 under setting [1] was 35.5 µM [falling, single point]. The same measure, in the same setting: under `O=C(NC(=S)N1CCc2ccccc21)c1ccccc1` stands 3.26 µM [falling, single point]; under `CC(=O)Nc1ccc(C(=O)N2CCN(C(=O)c3ccco3)CC2)cc1`, 20.6 µM [falling, partial curve, poor fit]. The same measure, in the same setting: under `C[C@H](NC(=O)c1ccc(Cl)cc1)C(=O)NNC(=O)c1cccs1` stands 5.8 µM [rising, full curve, poor fit]; under `Cc1ccnc(NC(=O)/C=C/c2ccccc2Cl)c1`, 18.4 µM [falling, single point]; under `COc1ccc2c(c1)O/C(=C\c1sccc1C)C2=O`, 5.17 µM [rising, partial curve, poor fit]. On the same count and under the same terms, under `Cc1ccccc1CSc1nc2n(n1)C(c1cccs1)C1=C(CCCC1=O)N2` (configuration not stated) stands 32.6 µM [falling, single point]. Consider `O=S(=O)(c1ccc2c(c1)OCO2)N1CCN(c2nnnn2-c2ccccc2)CC1`, for which the concentration at half-maximal activity (AC50) under setting [1] is 0.0891 µM [falling, full curve, poor fit]. Same read-out and setting: with `O=C(CN1CCC(C(=O)c2ccc(Cl)cc2)CC1)Nc1ccc2c(c1)OCCO2` the figure was 11.2 µM [falling, partial curve, poor fit]; with `O=C(NCCC1=CCCCC1)c1ccc(Br)o1`, 3.66 µM [rising, single point]; with `COc1ccc(NS(=O)(=O)c2cc(NC(=O)Cn3cnc4c3c(=O)n(C)c(=O)n4C)ccc2C)cc1`, 11.2 µM [falling, partial curve, poor fit]. Same read-out and setting: under `CS(=O)(=O)c1ccc(Cl)c(NC(=O)COC(=O)CCCN2C(=O)c3cccc4cccc(c34)C2=O)c1` stands 0.116 µM [rising, full curve, poor fit].
